# Results taken from the supplement of paper PMC3334620.
# Over roughly 33,000 sequences, “E-score (-0.5 to 0.5)” has its median near -8e-05; the highest 2% begin near 0.23. Some of the results follow.
# Biological target: T1, Nrg2 (UniProt P38082)
# T1 sequence: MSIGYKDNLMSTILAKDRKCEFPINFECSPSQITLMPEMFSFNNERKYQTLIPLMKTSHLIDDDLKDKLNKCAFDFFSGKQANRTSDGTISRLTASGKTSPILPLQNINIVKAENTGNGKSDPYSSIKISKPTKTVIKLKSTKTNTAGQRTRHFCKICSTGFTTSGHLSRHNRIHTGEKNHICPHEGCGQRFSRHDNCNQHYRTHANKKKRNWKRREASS
# Test: PBM E-score (8-mer binding enrichment) (E-score (-0.5 to 0.5)); higher = stronger / more preferred TF binding
# Conditions: protein concentration: 100 nM; construct: GST-full length
# How it was run: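 Universal all-10-mer Agilent arrays, fresh or stripped once, were converted to double-stranded form by primer extension. GST-tagged yeast transcription factors from PURExpress in vitro transcription/translation, full-length or DNA-binding domain only, were applied at about 100-200 nM and detected with fluorescent anti-GST. After masliner normalisation, the Universal PBM Analysis Suite scored each ungapped eight-base word together with its reverse complement by E-score.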
row,Sequence,PBM E-score
1,CCAAATGG,-0.0658
2,CCTAGGTA,-0.0874
3,AGGCTCAG,-0.206
4,GGCGGAAA,-0.0333
5,ATACCCCC,-0.177
6,CGGGAAAC,0.0907
7,CCCCTTTA,-0.0844
8,CGGTCGTC,-0.128
9,ACCATGGT,-0.195
10,ACTCTGAG,-0.211
11,GAGAACCA,0.00307
12,CACGGGAA,-0.0452
13,ATACTCTC,-0.0255
14,CCCCCACC,-0.382
15,CCCAGACG,-0.0304
16,GAGGGAAA,-0.134
17,GCTACGCC,-0.122
18,CTCCCATA,-0.19
19,ATCTCTTG,-0.169
20,AGGGCACT,-0.0548
21,CCGTAACC,-0.136
22,ATTGCAGA,0.0609
23,CACCCTGG,0.0652
24,ACAGCCAC,0.139
25,CCTCATGC,-0.141

row,Sequence,PBM E-score
1,ATCGTCCG,0.0505
2,AAATTCAT,-0.00189
3,CACCCGTA,-0.0208
4,ACTTCATG,0.0194
5,AACAGTTA,0.0888
6,CCGCGAAC,0.0734
7,AGAGGAGC,-0.209
8,AATCCATG,-0.0915
9,ACGCGCCG,0.025
10,CATTTTGG,-0.0285
11,GATACACA,0.0621
12,AGAAATAG,0.0811
13,CTAAATCA,0.0351
14,GTACCCGA,-0.211
15,CTCTCCGA,-0.209
16,ACACTGCT,-0.0746
17,AGCGATTG,-0.0488
18,ACTGAGAG,0.0147
19,GAGAAGAA,-0.0817
20,TGCCAGAA,0.0378
21,ACGGTACG,-0.157
22,TACTTGCA,0.179
23,GCCCGTCC,-0.307
24,ACTTCTAA,-0.0126
25,GTGGCATA,0.0404

row,Sequence,PBM E-score
1,AGGTTCTG,-0.0492
2,AGTCGAAA,0.0504
3,CCTACATA,-0.152
4,GGGTCTGA,0.135
5,GTAAATAA,0.0336
6,TAGTTTCA,0.258
7,GACAGTCA,-0.155
8,AGTAGCTC,-0.158
9,ATATGCCG,0.0896
10,CACCTCGG,0.0179
11,TACATGAA,-0.115
12,GGAACTCC,0.0233
13,ACTGGACT,-0.0793
14,GTATCCTA,-0.143
15,GACATAAA,0.109
16,GTCCTGTA,-0.0697
17,AGGACATA,0.0877
18,CACAGACG,-0.0651
19,AAGTGCGT,0.0697
20,CTCGGCAG,0.107
21,CCGGGTGA,-0.104
22,GCATAAAA,0.00462
23,AAGCACCT,-0.0193
24,ATATTGGC,0.0588
25,CACCTGCG,-0.0377

# Pulled one by one from the entries so far (five):
row,Sequence,PBM E-score
20,CTCGGCAG,0.107
12,GGAACTCC,0.0233
25,GTGGCATA,0.0404
19,GAGAAGAA,-0.0817
11,TACATGAA,-0.115

# Next entries.

row,Sequence,PBM E-score
1,AACGTTCG,-0.0564
2,CGTCCCGC,-0.028
3,ACTCGTGA,-0.145
4,AAGCTTTG,0.077
5,AAGATAGC,0.0443
6,TCAGGTCA,0.116
7,ATGTGAGC,-0.0373
8,CTTCTAGA,-0.204
9,ACCGTCCC,-0.136
10,GAAAGAGA,-0.04
11,AACTTCCG,0.00745
12,ATCCGCTG,-0.0161
13,ATGCAGTA,0.22
14,ACTTTAAT,0.0404
15,ACGGAGCG,0.0402
16,AACAGAAT,-0.058
17,GTATTCAA,0.11
18,ATACCGTG,0.00169
19,GAAGCACA,0.1
20,CAATCCCG,0.193
21,GCACGTGA,-0.0876
22,AACTTAAC,0.129
23,ATTTCTAC,-0.0899
24,ACTACTTG,0.158
25,CCCCGGGG,-0.175

# Three successive entries out of the list so far, quoted:
row,Sequence,PBM E-score
6,TCAGGTCA,0.116
7,ATGTGAGC,-0.0373
8,CTTCTAGA,-0.204

# Next entries:

row,Sequence,PBM E-score
1,AAGAATCA,0.139
2,CATTAACG,0.109
3,GGTTGAAC,0.116
4,ACCTGGGC,-0.294
5,ATCCGCTA,0.00576
6,CATTCAGA,0.00234
7,ACACATGT,0.101
8,GCGTGTCC,-0.0355
9,CCTGATTC,0.12
10,ATTAAGAC,-0.136
11,CGCATAAA,0.0248
12,ATATCACG,0.122
13,GCACTCAA,0.0408
14,ACCCCGGA,0.0302
15,TGTACACA,-0.0321
16,ATACTGGA,0.158
17,AGCACCGA,0.184
18,AAAGTGCT,-0.072
19,AAAAGGCA,0.125
20,CAACCACA,0.105
21,AAAGGATT,0.0159
22,CTGACAAA,0.0246
23,GGTGTTGA,-0.0624
24,AAGCCCAG,-0.126
25,ATAGCCTG,-0.224

row,Sequence,PBM E-score
1,AAGGCAAT,0.149
2,ACACATCC,0.107
3,GACTGCAA,-0.0832
4,ACATAGAC,-0.016
5,CGCCCCGC,-0.112
6,TCCAATAA,0.0718
7,AACGTACT,0.0763
8,CTAGAGTC,-0.344
9,CGAGTGCG,0.0439
10,AGAGACTC,-0.129
11,CTAAAGCA,0.0491
12,AAGGCATC,-0.282
13,GTGTAAAC,0.00127
14,ATCAGGTG,-0.039
15,ATGTATCG,0.194
16,ACCGGGGA,-0.317
17,ACGTTTGG,-0.246
18,ACACTGCA,-0.0569
19,TGAGATCA,-0.045
20,AAGACGAC,0.0398
21,AGCCAACC,0.0974
22,CTTCTTCC,-0.166
23,AGAAAGGA,0.0396
24,ATTTAACA,0.0136
25,ACCAGAAC,0.238

row,Sequence,PBM E-score
1,AATCAAAT,0.18
2,ATACTCAT,-0.114
3,GAGAGGAA,0.084
4,CGCGTCAG,-0.116
5,AACTGTGG,0.108
6,CGGAAAAA,-0.0675
7,ATTATCGC,0.254
8,CCAATTCC,0.0538
9,AGGGTATG,0.212
10,ATGGACAA,0.143
11,AGGCAGGC,-0.121
12,CAGATTAC,-0.0348
13,ACGATGTA,0.059
14,CAGGGTCC,0.446
15,CGATGATA,-0.00501
16,CATAGCTC,-0.112
17,CGAGCGTA,-0.0601
18,ACAGTGGA,0.19
19,CGTCTCAG,-0.0393
20,AAAGATCG,0.0698
21,ACCTCTCC,-0.318
22,CTTAATAC,0.188
